In patent US20230051797A1, “METHOD FOR RECOVERING EXTRACELLULAR VESICLE AND BLOOD COLLECTION VESSEL” (FUJIREBIO INC., priority 2019, published 2023):

Tested on: CD9, the surface marker protein of extracellular vesicle (EV)
Test: Study of action of chelating agent and surfactant on whole blood or on immune reaction (CD9, Example 5)
Parameters: species or system human
Description: To 0.01 g/mL of magnetic particles in 10 mM MES buffer (pH 5.0), 0.2 mg/mL of a mouse anti-CD9 monoclonal antibody (Fujirebio Inc.) that recognizes an extracellular vesicle (EV) surface marker CD9, was added. Then, the resulting solution was gently stirred at 25° C. for one hour for incubation. After the reaction, the magnetic particles were magnetically collected and washed with a washing solution (50 mM Tris buffer, 150 mM NaCl2, 2.0% BSA, pH 7.2) in order to obtain anti-CD9 antibody solid-phased particles. Each antibody solid-phased particle was suspended in a particle diluent (50 mM Tris buffer, 1 mM EDTA-2Na, 0.1% NaN3, 2.0% BSA, pH 7.2) in order to obtain each antibody solid-phased particle solution.
Desalted alkaline phosphatase (ALP) was mixed with N-(4-maleimidobutyryloxy)-succinimide (GMBS) (final concentration 0.3 mg/mL) and the resulting solution was allowed to stand at 30° C. for one hour for maleimidation of ALP. Next, in a coupling reactant solution (100 mM phosphate buffer, 1 mM EDTA-2Na, pH 6.3), Fab's of mouse anti-CD9 monoclonal antibody was mixed with maleimidized ALP at a molar ratio of 1: 1, and reacted at 25° C. for one hour. The reactant solution was subjected to purification using Superdex 200 column chromatography (General Electric Company) to obtain ALP-labeled anti-CD9 antibody. Each ALP-labeled antibody was suspended in a labeled antibody diluent (50 mM MES buffer, 150 mM NaCl2, 0.3 mM ZnCl2, 1 mM MgCl2, 0.1% NaN3, 2.0% BSA, pH 6.8) to obtain each labeled antibody solution.
20 μL of the sample for measurement and 50 μL of the anti-CD9 antibody solid-phased particle solution were dispensed into the reaction vessel and stirred. Then, the resulting solution was incubated at 37° C. for 8 minutes (primary reaction), and B/F separation and washing were carried out. 50 μL of the ALP-labeled antibody was dispensed into the reaction vessel, the resulting solution was stirred and then incubated at 37° C. for 8 minutes, and B/F separation and washing were carried out. Then, 200 μL of Lumipulse (registered trademark) substrate solution (Fujirebio Inc.) containing 3-(2′-spiroadamantane)-4-methoxy-4-(3″-phosphoryloxy)phenyl-1,2-dioxetane disodium salt (AMPPD) serving as a chemiluminescent substance was dispensed into the reaction chamber. The resulting solution was stirred and then incubated at 37° C. for 4 minutes for the measurement of luminescence intensity using luminometer. A count value was obtained as the measured value. The luminescence intensity was measured using a fully automated chemiluminescent enzyme immunoassay system (Lumipulse L2400 (Fujirebio Inc.)).
Antibodies recognizing the same epitope in CD9 were used as the antibody solid-phased on the magnetic particle and the ALP-labeled antibody. Due to the presence of a plurality of CD9 on a single extracellular vesicle, it is possible to measure for the extracellular vesicle presenting a plurality of CD9 to be indicated as the surface marker rather than free CD9 by means of the sandwich immunoassay in which the antibodies recognizing the same epitope as the solid-phased antibodies were used as the ALP-labeled antibodies.
We investigated whether the chelating agent and the surfactant act on whole blood or on immune reaction. […]
In addition, CD9 was measured also for a solution obtained by adding 100 mM EGTA to the CD9 antibody solid-phased particle solution. […]

O=C(O)CN(CCOCCOCCN(CC(=O)O)CC(=O)O)CC(=O)O [EGTA, glycol ether diamine tetraacetic acid]
count value, EGTA added to the CD9 antibody solid-phased particle solution vs not added (100 mM EGTA in particle solution): not significantly higher | count value vs supernatants prepared from whole blood without EGTA (EGTA final 200 mM in whole blood, with 0% or 1% tergitol 15-S-40): significantly higher count values | Count average (blood collection vessel: 200 mM EGTA, 0% Tergitol, particle solution: 100 mM EGTA + 0.5% Tergitol): 116133 | Count average (blood collection vessel: 200 mM EGTA, 0% Tergitol, particle solution: 0.5% Tergitol): 102897 | Count average (blood collection vessel: nothing added, particle solution: 100 mM EGTA + 0.5% Tergitol): 13768
